# Library screen at single concentrations

Sequences of proteins named here, by UniProt entry; tags and fusion partners are left off. Residues count along the entry.
UniProt Q8IDJ8, 1-583: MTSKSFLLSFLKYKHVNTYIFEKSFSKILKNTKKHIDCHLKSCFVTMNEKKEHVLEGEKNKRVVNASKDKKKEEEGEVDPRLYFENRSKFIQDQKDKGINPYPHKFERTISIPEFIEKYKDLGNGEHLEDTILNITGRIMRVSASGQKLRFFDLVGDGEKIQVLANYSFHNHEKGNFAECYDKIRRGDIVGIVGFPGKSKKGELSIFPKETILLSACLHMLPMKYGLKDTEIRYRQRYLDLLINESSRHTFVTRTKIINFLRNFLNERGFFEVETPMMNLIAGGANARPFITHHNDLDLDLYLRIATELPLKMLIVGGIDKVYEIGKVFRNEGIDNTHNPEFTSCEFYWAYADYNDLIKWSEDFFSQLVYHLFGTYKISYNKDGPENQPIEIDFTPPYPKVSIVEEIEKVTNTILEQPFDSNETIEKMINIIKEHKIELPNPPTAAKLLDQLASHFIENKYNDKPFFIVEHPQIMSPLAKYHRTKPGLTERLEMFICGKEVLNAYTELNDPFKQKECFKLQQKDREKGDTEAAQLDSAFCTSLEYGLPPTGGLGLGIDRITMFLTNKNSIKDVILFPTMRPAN
UniProt A4I591, 1-473: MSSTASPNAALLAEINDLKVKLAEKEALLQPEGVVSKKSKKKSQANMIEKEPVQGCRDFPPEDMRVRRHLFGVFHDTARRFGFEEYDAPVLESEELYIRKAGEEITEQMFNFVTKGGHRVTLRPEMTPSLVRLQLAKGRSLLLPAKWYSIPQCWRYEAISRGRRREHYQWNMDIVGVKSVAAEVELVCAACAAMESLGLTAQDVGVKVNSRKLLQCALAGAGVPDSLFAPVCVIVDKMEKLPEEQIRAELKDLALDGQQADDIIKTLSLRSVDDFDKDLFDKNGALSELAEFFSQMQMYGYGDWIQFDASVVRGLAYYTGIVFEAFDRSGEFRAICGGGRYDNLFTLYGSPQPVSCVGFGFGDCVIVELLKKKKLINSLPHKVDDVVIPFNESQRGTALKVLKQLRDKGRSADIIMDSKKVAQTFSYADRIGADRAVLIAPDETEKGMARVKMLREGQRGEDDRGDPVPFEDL
UniProt Q4DA54, 1-478: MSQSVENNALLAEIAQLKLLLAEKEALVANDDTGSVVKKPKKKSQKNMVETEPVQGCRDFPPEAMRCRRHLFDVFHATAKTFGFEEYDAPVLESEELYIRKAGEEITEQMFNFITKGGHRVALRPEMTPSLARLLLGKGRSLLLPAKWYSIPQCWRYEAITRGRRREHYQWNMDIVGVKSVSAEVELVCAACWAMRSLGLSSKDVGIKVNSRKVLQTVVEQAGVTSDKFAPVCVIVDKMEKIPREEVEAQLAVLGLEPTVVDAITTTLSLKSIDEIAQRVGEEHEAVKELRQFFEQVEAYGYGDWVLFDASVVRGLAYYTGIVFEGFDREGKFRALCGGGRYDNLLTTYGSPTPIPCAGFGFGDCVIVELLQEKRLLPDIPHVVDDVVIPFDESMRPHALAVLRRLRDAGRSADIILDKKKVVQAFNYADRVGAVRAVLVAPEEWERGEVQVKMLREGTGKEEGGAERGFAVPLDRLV
UniProt P9WPC5, whole entry: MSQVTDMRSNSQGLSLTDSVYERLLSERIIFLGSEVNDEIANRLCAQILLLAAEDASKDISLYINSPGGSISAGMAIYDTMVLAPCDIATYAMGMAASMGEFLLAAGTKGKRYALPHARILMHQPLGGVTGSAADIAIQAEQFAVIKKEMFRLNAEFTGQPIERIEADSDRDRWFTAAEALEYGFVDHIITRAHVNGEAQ
UniProt P9WPC3, whole entry partner: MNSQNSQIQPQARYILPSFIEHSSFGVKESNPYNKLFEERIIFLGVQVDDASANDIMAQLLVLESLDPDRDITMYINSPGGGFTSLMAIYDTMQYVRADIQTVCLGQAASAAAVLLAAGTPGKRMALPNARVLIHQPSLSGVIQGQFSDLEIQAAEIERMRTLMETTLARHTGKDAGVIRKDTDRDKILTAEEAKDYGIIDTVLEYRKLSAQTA

Source: ChEMBL document CHEMBL3988442, “University of Dundee, Small-Polar-MMV Screening Library” (2021).

PfKRS1: 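Lysine-tRNA ligase, Plasmodium falciparum 3D7 (UniProt Q8IDJ8). Enzyme assay of the cytosolic lysyl-tRNA synthetase in 384-well plates, read by luminescence. Compounds at 30 µM. Direction is inferred from only a few compounds that gave an IC50; most scored high, so higher reads as stronger inhibition. About 69,000 compounds were tested under these conditions; 0.071% (about 49) showed 50% or more at least once.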
LiHisRS: 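Histidine-tRNA ligase, Leishmania infantum (UniProt A4I591). Enzyme assay of histidyl-tRNA synthetase; the read-out is not stated. Tested at 30 µM. Direction is inferred from retests: higher values go with stronger inhibition. The assay is labelled LdHisRS but filed under L. infantum. Of about 69,000 compounds tested this way, about 410 (0.6%) reached 50% or more in at least one test.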
TcHisRS: 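Histidine-tRNA ligase, Trypanosoma cruzi CL Brener (UniProt Q4DA54). Enzyme assay of histidyl-tRNA synthetase; the read-out is not stated. Concentration: 30 µM. Direction is inferred from retests: higher values go with stronger inhibition. About 69,000 compounds were tested under these conditions; 0.045% (about 31) showed 50% or more at least once.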
Leishmania in macrophages: 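Cell assay of Leishmania donovani living inside macrophages; the read-out is not stated. Concentration: 30 µM. The record gives no direction; compounds that gave an IC50 in retests scored well above the rest, so higher reads as stronger inhibition. Size under these conditions: about 69,000 compounds, about 1,000 of them at 50% or above in at least one test.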
ClpP1P2: 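ClpP1P2, Mycobacterium tuberculosis (UniProt P9WPC5 and UniProt P9WPC3). Protease assay of ClpP1P2, read by the AMC dye that it sets free. Compounds at 50 µM. Higher reads as stronger inhibition, judged from the few compounds that gave an IC50. Most other retested compounds had strongly negative values. About 69,000 compounds were tested under these conditions; 0.015% (about 10) showed 50% or more at least once.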

The filed quantity is “Percent Effect” (%).
The controls that fix the scale are not given in the record; negative values are as filed.
The compounds are a random part of those screened.
Two or more numbers in one place are separate tests of the same structure; such repeats can differ widely.

- OC(COCc1ccccc1)CN1CCC(Cn2cccn2)CC1 (stereo not shown) | PfKRS1: 3.583%; LiHisRS: 4.878%; TcHisRS: 6.25%; Leishmania in macrophages: -6.304%; ClpP1P2: -15.62%
- Cc1cnn(C2CCCN(C(=O)C3=NN(C)C(=O)CC3)C2)c1 (stereo not shown) | PfKRS1: -3.107%; LiHisRS: 28.57%; TcHisRS: -2.256%; Leishmania in macrophages: 1.486%; ClpP1P2: 5.725%
- CN(C)c1cccc(C2CCCN2S(=O)(=O)c2cn(C)cn2)n1 (stereo not shown) | PfKRS1: 3.799%; LiHisRS: 3.448%; TcHisRS: 4.563%; Leishmania in macrophages: 24.02%; ClpP1P2: -13.29%
- O=C1c2c(O)cc(O)cc2O[C@@H](c2ccc(O)cc2)[C@@H]1O | PfKRS1: 1.676%; LiHisRS: 2.778%; TcHisRS: 4.95%; Leishmania in macrophages: 5.908%; ClpP1P2: -2.15%
- c1ccn2c(SCC3CN=C(N4CCOCC4)S3)ncc2c1 (stereo not shown) | PfKRS1: 0.942%; LiHisRS: 17.2%; TcHisRS: 17.28%; Leishmania in macrophages: 5.354%; ClpP1P2: -11.29%
- CC(=O)N1CCC(Cc2cncc(-c3c(C)n[nH]c3C)n2)C1 (stereo not shown) | PfKRS1: -2.419%; LiHisRS: 11.58%; TcHisRS: 8.209%; Leishmania in macrophages: 13.01% and 17.81%; ClpP1P2: 7.2%
- CCCC1CCCN(Cc2csc(-c3cnn(C)c3)n2)CC1 (stereo not shown) | PfKRS1: 0.1819%; LiHisRS: 37.6%; TcHisRS: 3.422%; Leishmania in macrophages: -20.44%; ClpP1P2: 25.79%
- CC(=O)NCCc1ccc(S(=O)(=O)Nc2cc(F)ccc2C)s1 | PfKRS1: 5.941%; LiHisRS: 18.99%; TcHisRS: -1.293%; Leishmania in macrophages: 23.27%; ClpP1P2: -0.6659%
- NCC1CCC(c2c(C(=O)NCCO)sc3ccccc23)CC1 (stereo not shown) | PfKRS1: 0.2179%; LiHisRS: 23.94%; TcHisRS: 14.62%; ClpP1P2: 1.688%
- CN1CC(=O)N(c2cccc(F)c2)CC12CCN(CC1CCOCC1)C2 (stereo not shown) | PfKRS1: 4.91%; LiHisRS: 9.735%; TcHisRS: 2.4%; ClpP1P2: 1.28%
- Cc1nn(C)c2nc(-c3ccccn3)nc(NC[C@@H]3CCCO3)c12 | PfKRS1: -0.5398%; LiHisRS: 3.947%; TcHisRS: 13.3%; Leishmania in macrophages: -26.71%; ClpP1P2: -5.894%
- CCC(C)C(=O)NS(=O)(=O)c1ccc(C#N)cc1C(F)(F)F (stereo not shown) | PfKRS1: 5.304%; LiHisRS: 8.929%; TcHisRS: 6.395%; Leishmania in macrophages: 22.68%; ClpP1P2: -7.736%
- COC1CCN(c2ccc(NC(=O)Cn3cccc3)cc2)CC1 | PfKRS1: 0.175%; LiHisRS: 10.26%; TcHisRS: 3.614%; Leishmania in macrophages: -26.68% and 15.46%; ClpP1P2: -3.817%
- c1cc(-c2cnccn2)cc(-c2ccn(CCN3CCCC3)n2)c1 | PfKRS1: -4.024%; LiHisRS: 13.46%; TcHisRS: 23.33%; Leishmania in macrophages: 16.5%; ClpP1P2: -13.36%
- CCc1cc(N2CCC(NCCSc3nnnn3C)CC2)nc(C)n1 | PfKRS1: 1.45%; LiHisRS: 19.84%; TcHisRS: 9.412%; Leishmania in macrophages: 1.243%; ClpP1P2: -4.399%
- Cc1ccc(C)c(NC(=O)c2n[nH]c(-n3cnnc3)n2)c1 | PfKRS1: 4.093%; LiHisRS: 11.65%; TcHisRS: 1.639%; Leishmania in macrophages: 15.42%; ClpP1P2: 4.387%
- COCCC1COC2(CCN(C(=O)C3CCC3)CC2)C1 (stereo not shown) | PfKRS1: 2.852%; LiHisRS: 18.42%; TcHisRS: 4.598%; Leishmania in macrophages: -6.26%; ClpP1P2: 4.444%
- CC(C)CN1CCC2(C=C(C(=O)N(C)C)c3ccccc32)CC1.O=C(O)C(F)(F)F | Leishmania in macrophages: 41.74%
- c1cn(-c2cnc(C3CCCNC3)cn2)cn1 (stereo not shown) | PfKRS1: -2.711%; LiHisRS: 15.79%; TcHisRS: 2.985%; ClpP1P2: 23.21%
- CC(=O)N1CCN(CC(=O)N2CCN(c3cccc(C)c3)CC2)CC1 | PfKRS1: 1.018%; LiHisRS: 1.613%; TcHisRS: 4.082%; Leishmania in macrophages: -18.61%; ClpP1P2: -11.97%

Once more, the final 2:

- c1cn(-c2cnc(C3CCCNC3)cn2)cn1 (stereo not shown) | PfKRS1: -2.711%; LiHisRS: 15.79%; TcHisRS: 2.985%; ClpP1P2: 23.21%
- CC(=O)N1CCN(CC(=O)N2CCN(c3cccc(C)c3)CC2)CC1 | PfKRS1: 1.018%; LiHisRS: 1.613%; TcHisRS: 4.082%; Leishmania in macrophages: -18.61%; ClpP1P2: -11.97%